# For at least one compound, name, drawing or mass did not settle the structure.
# Test system: SUM159 cells
# Experiment: CDCFH2 / CDCF probe labeling (intracellular hydroperoxides), SUM159
# Type: cell-based, human
# Conditions: oxidation-insensitive probe
# Procedure: FIGS. 5A-5D: CDCFH2 oxidation sensitive and CDCF oxidation insensitive probe labeling of BSO, DTPP, and AUR exposed SUM159 and HMECs cells. Asynchronously growing cultures of SUM159 (Panels A, B) and HMECs (Panes C, D) were plated and treated as described in FIG. 1. Monolayer cultures were harvested and trypsinized, washed once with PBS then labeled in PBS with either CDCFH2 (Panesl A, C) or CDCF (Panels B, D)(10 μg/mL, in 0.1% DMSO 15 minutes) at 37° C. Mean fluorescence intensity (MFI) of 10,000 cells was analyzed by flow cytometry. Samples were assayed in triplicate; Mean±1 SEM of 3 separate experiments containing 3 treatment dishes per group (n=9), *p<0.001 as compared to Control.
# FIG. 9: Catalase inhibitable CDCFH2 oxidation in BSO, DTPP, and AUR exposed SUM159 cells. […] Mean fluorescence intensity (MFI) of 10,000 cells was analyzed by flow cytometry. […]
# Measurement of Intracellular Hydroperoxides: Steady-state levels of hydroperoxides were estimated using the oxidation sensitive {5-(and-6)-carboxy-2′,7′-dichlorodihydrofluorescein diacetate, (CDCFH2)} and oxidation-insensitive {5-(and-6)-carboxy-2′,7′-dichlorofluorescein diacetate, (CDCF)} fluorescent dyes purchased from Molecular Probes. […] Samples were analyzed using a FACScan flowcytometer (Becton Dickinson Immuno-cytometry System, INC., Mountain View, Calif.) (excitation 488 nm, emission 530 nm band-pass filter). […]
compound,measurement,value
"CCCCCCCCCC[P+](c1ccccc1)(c1ccccc1)c1ccccc1 [DTPP, Decyl-Triphenylphosphonium]","CDCF fluorescence compared to control, in words",slightly decreased CDCF fluorescence

# Source: patent publication US9801922B2, “Compositions and methods of treating cancer” (UNIVERSITY OF IOWA RESEARCH FOUNDATION, priority 2011, dated 2017)
